This passage reports MIC results from PMC10415494, “Ga(III) pyridinecarboxylate complexes: potential analogues of the second generation of therapeutic Ga(III) complexes?” (Journal of Biological Inorganic Chemistry, 2023).

Molecules are shown by their SMILES. Converted amounts (≈) assume the structure as drawn.

The experiment has as its system Escherichia coli (E. coli) CCM 3988. Put plainly: Antimicrobial activity, macrodilution method (growth by A590). Type of experiment: cell-based. The conditions noted are these: CCM3988, positive control, read-out: MIC100 for E. coli. On the procedure:
The antimicrobial activities of gallium(III) complexes GaPic, GaDpic, GaChel, GaCldpic, free ligands (HPic, H2Dpic, H2Chel, H2Cldpic) and positive controls (cefoxitin (C), ampicillin (A) and piperacillin (P)) were evaluated by macrodilution method using G^+ bacteria (Firmicutes) Staphylococcus aureus (S. aureus) CCM 3953 (Czech Collection of Microorganisms), G^− bacteria (γ-proteobacteria) Escherichia coli (E. coli) CCM 3988, Pseudomonas aeruginosa (P. aeruginosa) CCM 1959 (Czech Collection of Microorganisms) and the yeast Candida parapsilosis (C. parapsilosis) ATCC 22019 (American type culture collection). Cultures of bacteria (in Mueller–Hinton broth, MHB) and yeasts (in Sabouraud’s growth medium, SB) were incubated under shaking (250 rpm) at 37 °C. The growth of bacteria and yeasts was evaluated by measuring the absorbance of the growing cultures (A590) until the cultures reached the stationary growth phase. The effects of gallium(III) complexes on the growth of filamentous fungi Rhizopus oryzae (R. oryzae) CCM F-8284, Alternaria alternata (A. alternata) CCM F-128 and Microsporum gypseum (M. gypseum) CCM F-8342 (Czech Collection of Microorganisms) were observed by macrodilution method on solidified potato-dextrose growth medium (PDA). During culturing, the diameters of growing fungal colonies were measured at regular intervals. […] The IC50 values were evaluated from toxicity curves. […]

With `CC1(C)S[C@@H]2[C@H](NC(=O)[C@H](N)c3ccccc3)C(=O)N2[C@H]1C(=O)O` [ampicillin], the MIC came to 2.86 µM (≈ 0.999 µg/mL).
